The supplement of paper PMC10849652
This is one part of the list.

Amino acid sequences for entries named in this document (tags omitted). A change or cut given only in a name is not applied to a line headed by its entry.
UniProt P53396: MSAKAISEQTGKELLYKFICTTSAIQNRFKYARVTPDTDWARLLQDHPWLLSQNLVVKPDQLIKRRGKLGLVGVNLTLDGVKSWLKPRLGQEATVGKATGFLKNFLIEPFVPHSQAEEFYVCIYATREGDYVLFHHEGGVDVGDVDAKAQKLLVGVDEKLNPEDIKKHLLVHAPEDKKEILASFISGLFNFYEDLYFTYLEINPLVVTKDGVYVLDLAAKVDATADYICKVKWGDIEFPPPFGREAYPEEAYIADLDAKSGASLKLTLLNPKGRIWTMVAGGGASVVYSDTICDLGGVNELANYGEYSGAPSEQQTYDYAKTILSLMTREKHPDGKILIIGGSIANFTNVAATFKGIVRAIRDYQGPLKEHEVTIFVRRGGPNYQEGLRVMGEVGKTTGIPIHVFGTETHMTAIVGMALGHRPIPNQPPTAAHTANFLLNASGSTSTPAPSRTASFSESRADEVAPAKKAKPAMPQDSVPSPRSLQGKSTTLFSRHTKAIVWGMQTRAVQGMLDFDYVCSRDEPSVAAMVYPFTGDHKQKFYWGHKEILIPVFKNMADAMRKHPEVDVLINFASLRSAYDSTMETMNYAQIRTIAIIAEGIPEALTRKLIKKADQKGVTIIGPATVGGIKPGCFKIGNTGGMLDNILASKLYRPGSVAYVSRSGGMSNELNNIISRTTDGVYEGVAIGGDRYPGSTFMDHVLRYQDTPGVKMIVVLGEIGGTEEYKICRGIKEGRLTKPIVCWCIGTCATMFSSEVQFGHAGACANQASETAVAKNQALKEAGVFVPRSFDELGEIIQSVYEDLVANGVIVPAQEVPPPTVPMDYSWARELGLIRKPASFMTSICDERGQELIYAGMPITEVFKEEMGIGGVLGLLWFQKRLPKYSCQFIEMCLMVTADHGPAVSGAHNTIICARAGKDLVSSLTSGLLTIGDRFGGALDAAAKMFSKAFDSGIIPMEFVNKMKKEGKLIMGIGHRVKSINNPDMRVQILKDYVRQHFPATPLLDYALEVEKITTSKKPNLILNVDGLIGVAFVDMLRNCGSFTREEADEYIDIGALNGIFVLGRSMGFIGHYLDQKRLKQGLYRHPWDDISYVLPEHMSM
UniProt Q9NP58: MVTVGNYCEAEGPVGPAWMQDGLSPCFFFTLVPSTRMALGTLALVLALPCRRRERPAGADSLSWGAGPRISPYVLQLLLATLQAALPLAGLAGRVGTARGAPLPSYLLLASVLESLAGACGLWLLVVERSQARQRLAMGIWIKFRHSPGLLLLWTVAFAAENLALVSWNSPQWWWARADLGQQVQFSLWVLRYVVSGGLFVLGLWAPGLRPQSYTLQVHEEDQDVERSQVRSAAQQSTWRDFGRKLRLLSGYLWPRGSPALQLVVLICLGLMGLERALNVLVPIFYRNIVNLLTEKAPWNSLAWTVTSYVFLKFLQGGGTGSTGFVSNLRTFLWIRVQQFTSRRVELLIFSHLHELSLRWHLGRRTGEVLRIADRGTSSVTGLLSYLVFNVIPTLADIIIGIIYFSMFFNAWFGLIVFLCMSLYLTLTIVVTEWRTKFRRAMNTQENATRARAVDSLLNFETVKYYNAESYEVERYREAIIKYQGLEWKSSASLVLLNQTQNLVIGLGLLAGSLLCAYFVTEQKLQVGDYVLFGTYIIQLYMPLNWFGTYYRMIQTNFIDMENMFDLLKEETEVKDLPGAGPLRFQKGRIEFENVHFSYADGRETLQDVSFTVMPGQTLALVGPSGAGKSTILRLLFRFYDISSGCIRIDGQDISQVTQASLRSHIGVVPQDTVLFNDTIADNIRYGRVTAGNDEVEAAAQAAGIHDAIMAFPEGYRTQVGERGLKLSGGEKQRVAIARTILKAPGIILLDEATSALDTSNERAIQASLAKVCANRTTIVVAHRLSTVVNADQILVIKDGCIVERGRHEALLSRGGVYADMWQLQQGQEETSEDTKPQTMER
UniProt Q9H3P7: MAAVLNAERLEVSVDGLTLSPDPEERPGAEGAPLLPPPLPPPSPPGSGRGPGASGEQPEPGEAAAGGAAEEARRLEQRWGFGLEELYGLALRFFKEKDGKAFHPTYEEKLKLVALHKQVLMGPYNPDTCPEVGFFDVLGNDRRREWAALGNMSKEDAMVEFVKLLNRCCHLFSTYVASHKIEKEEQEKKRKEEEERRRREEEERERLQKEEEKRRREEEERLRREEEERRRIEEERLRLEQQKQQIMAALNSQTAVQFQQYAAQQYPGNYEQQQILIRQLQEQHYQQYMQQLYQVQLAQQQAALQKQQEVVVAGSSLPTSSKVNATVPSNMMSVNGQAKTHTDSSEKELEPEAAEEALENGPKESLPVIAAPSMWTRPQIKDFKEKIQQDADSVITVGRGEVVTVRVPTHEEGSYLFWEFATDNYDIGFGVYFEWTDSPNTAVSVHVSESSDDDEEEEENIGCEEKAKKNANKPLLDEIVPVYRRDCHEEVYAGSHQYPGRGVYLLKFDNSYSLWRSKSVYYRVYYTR
UniProt Q9NUT2: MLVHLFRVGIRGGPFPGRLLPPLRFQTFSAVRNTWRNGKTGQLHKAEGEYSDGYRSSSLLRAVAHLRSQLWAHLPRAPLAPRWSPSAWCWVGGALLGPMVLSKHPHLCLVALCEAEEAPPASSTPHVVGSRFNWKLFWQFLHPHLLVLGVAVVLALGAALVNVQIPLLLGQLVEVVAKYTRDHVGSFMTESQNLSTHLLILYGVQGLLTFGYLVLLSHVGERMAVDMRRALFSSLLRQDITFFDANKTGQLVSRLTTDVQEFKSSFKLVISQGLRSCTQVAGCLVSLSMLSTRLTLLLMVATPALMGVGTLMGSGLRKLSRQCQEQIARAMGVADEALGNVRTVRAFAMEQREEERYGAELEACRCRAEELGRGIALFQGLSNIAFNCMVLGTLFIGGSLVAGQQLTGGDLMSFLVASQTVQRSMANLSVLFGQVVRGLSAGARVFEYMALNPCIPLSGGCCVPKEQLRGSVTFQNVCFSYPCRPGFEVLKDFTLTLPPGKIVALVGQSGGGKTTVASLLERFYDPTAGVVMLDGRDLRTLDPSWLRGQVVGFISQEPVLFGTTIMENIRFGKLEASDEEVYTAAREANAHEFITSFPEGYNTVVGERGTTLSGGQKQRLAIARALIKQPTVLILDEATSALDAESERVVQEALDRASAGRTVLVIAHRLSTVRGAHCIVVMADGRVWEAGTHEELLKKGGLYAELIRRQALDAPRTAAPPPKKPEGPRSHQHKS
UniProt O75027: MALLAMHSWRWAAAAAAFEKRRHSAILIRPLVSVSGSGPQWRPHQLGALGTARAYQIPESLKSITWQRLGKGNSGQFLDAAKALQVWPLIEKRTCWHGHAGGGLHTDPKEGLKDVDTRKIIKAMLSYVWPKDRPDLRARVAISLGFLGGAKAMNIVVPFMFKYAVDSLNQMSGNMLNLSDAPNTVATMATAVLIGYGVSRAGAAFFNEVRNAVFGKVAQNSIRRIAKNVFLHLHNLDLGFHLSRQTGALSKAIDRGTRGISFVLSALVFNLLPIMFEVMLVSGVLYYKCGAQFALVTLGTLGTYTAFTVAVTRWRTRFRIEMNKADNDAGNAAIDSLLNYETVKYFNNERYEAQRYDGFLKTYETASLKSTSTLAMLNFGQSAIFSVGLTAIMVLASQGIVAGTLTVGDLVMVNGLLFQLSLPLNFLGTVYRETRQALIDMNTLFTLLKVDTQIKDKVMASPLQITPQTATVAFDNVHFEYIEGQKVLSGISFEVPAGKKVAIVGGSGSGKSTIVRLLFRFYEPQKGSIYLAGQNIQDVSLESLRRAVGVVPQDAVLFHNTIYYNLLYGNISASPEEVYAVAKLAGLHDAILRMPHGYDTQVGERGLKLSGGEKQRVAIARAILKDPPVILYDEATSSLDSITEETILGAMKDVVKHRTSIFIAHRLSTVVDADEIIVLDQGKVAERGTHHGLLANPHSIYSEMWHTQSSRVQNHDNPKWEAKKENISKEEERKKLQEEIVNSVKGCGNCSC
UniProt Q9NUQ8: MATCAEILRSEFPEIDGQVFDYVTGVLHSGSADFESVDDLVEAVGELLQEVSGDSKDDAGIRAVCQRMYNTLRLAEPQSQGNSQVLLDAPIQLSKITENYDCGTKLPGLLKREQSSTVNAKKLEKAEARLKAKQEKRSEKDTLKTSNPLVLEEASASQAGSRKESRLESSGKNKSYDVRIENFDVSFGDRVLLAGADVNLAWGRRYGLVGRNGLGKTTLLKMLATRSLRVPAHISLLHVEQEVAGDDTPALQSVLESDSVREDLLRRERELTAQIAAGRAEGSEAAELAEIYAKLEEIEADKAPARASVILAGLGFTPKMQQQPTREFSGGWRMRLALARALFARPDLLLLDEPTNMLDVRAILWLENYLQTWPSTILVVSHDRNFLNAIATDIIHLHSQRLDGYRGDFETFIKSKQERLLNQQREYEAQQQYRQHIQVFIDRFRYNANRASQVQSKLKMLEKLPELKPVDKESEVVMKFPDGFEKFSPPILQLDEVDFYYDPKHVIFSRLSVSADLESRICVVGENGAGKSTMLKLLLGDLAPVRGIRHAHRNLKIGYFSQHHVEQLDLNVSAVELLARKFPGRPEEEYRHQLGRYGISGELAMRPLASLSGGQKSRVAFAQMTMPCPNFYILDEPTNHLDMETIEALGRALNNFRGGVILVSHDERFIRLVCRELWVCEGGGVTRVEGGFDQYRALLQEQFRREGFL
UniProt P11310: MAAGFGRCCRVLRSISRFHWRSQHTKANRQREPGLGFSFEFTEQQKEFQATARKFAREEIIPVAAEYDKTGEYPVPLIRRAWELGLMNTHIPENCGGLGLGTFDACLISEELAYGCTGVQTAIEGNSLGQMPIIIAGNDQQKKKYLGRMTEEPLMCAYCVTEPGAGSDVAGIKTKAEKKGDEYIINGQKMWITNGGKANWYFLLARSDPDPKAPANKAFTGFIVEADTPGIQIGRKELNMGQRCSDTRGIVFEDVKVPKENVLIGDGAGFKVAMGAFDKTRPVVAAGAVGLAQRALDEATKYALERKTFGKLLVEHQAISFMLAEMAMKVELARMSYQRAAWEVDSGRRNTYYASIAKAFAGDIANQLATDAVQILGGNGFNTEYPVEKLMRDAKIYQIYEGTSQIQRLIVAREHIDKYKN
UniProt Q8NFV4: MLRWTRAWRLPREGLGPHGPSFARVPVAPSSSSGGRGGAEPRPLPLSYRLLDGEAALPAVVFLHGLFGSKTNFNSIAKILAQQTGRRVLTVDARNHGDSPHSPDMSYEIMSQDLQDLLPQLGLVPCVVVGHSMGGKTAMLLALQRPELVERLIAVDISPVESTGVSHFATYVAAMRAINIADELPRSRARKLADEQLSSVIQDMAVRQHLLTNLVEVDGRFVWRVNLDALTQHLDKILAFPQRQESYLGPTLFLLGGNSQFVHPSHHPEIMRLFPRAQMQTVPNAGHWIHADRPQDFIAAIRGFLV
UniProt Q9UG63: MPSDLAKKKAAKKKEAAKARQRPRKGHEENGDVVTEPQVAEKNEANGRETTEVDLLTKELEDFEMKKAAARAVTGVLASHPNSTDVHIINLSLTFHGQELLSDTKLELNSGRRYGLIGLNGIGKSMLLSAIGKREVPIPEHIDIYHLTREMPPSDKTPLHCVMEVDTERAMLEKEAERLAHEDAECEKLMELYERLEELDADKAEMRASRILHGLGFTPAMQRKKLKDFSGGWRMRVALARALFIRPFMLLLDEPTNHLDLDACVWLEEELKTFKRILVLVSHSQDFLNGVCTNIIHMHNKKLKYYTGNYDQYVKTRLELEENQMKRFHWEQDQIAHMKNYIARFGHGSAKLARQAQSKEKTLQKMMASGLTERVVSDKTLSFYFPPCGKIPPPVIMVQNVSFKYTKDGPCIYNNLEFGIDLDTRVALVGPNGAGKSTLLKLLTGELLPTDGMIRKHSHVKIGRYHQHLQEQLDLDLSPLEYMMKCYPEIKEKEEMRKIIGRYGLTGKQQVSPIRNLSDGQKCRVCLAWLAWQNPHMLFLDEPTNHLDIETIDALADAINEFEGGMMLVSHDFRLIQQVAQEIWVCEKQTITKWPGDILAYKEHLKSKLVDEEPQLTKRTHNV
UniProt O95870: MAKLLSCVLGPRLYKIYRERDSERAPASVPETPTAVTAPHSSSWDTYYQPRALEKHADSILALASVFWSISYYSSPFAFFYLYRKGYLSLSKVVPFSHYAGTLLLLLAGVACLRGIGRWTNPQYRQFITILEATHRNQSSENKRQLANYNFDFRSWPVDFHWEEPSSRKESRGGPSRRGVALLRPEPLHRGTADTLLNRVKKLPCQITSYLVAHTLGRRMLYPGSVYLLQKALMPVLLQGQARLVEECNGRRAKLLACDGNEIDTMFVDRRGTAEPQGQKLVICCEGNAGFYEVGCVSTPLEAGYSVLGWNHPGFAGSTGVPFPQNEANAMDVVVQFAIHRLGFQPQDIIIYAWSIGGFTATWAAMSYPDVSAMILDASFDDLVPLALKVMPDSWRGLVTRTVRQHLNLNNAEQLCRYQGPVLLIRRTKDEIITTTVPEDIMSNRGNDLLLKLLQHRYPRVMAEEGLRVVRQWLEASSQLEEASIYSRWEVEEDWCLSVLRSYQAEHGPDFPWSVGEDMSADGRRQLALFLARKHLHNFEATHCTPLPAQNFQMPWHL

Each target was assayed with C#Cc1cccc(Nc2ncnc3cc(OCCOC)c(OCCOC)cc23)c1 [erlotinib] (assay: log2 fold change, soluble protein after heating vs DMSO (PISA); higher = thermal stabilisation; K562 lysate, 10 uM; active = over 0.2 and 3.5 SD of the protein, either way, in both replicates (recomputed)).
How it was run: (§1)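 Thermal stability, expressed as log-two fold change relative to solvent controls, is given from duplicates. Crude K562 extract in PBS pH 7.4 with 1 mM MgCl2, at 1 mg/mL protein, was treated with 10 μM compound for 30 min and heated in aliquots for 3 min across 48°C-58°C. After pooling, adjustment to 0.5% NP-40 at 4°C and centrifugation at 21,000xg for 90 min, supernatant protein was measured by TMTpro 16plex LC-MS/MS with channel sums equalised.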

log2 fold change, inactive:
ACADVL isoform 3 (UniProt P49748) -0.066
ABCC4 (UniProt O15439) -0.022
ABCE1 (UniProt H0Y990) -0.071
ABCE1 (UniProt P61221) -0.019
ABHD5 (UniProt Q8WTS1) 0.009
ACADS (UniProt P16219) -0.013
ACLY (UniProt P53396) -0.006
ABCB6 (UniProt Q9NP58) 0.039
AATF (UniProt Q9NY61) -0.007
ACOT13 (UniProt Q9NPJ3) 0.021
ABI1 isoform 9 (UniProt Q8IZP0) -0.014
ACACA isoform 4 (UniProt Q13085) 0.024
ACBD3 (UniProt Q9H3P7) 0.008
ABITRAM (UniProt Q9NX38) 0.056
ABCB8 (UniProt Q9NUT2) -0.004
ABCC5 (UniProt O15440) 0.059
AARSD1 isoform 3 (UniProt Q9BTE6) -0.012
AASDHPPT (UniProt Q9NRN7) -0.007
ABCA3 (UniProt Q99758) -0.022
ABCC1 (UniProt P33527) 0.002
ABCB7 isoform 2 (UniProt O75027) -0.008
ABCF3 (UniProt Q9NUQ8) 0.005
ACADM isoform 2 (UniProt P11310) -0.088
ABCA4 (UniProt P78363) 0.065
AAK1, A0A096LP25 -0.021
ABHD11 (UniProt Q8NFV4) -0.064
AAGAB (UniProt Q6PD74) -0.016
ACBD6 (UniProt Q9BR61) 0.013
ABCF2 isoform 2 (UniProt Q9UG63) 0.046
ABHD16A (UniProt O95870) -0.009
ACCS (UniProt Q96QU6) -0.002
ACACB (UniProt O00763) 0.042

Each target was assayed with C/C(=N\NC(=O)C1=CC(=CC=C1)S(=O)(=O)N2CCOCC2)/C3=C(C=CC(=C3)Cl)O in the same assay as above.
How it was run: as §1

log2 fold change, inactive:
ACADVL isoform 3 (UniProt P49748) -0.024
ABCC4 (UniProt O15439) -0.017
ABCE1 (UniProt H0Y990) -0.236
ABCE1 (UniProt P61221) -0.007
ABHD5 (UniProt Q8WTS1) 0.042
ACADS (UniProt P16219) 0.021
ACLY (UniProt P53396) 0.037
ABCB6 (UniProt Q9NP58) -0.084
AATF (UniProt Q9NY61) -0.035
ACOT13 (UniProt Q9NPJ3) -0.006
ABI1 isoform 9 (UniProt Q8IZP0) -0.003
ACACA isoform 4 (UniProt Q13085) 0.039
ACBD3 (UniProt Q9H3P7) -0.013
ABITRAM (UniProt Q9NX38) -0.227
ABCB8 (UniProt Q9NUT2) -0.042
ABCC5 (UniProt O15440) -0.581
AARSD1 isoform 3 (UniProt Q9BTE6) -0.033
AASDHPPT (UniProt Q9NRN7) -0.009
ABCA3 (UniProt Q99758) -0.028
ABCC1 (UniProt P33527) 0.03
ABCB7 isoform 2 (UniProt O75027) 0.014
ABCF3 (UniProt Q9NUQ8) 0.013
ACADM isoform 2 (UniProt P11310) 0.049
ABCA4 (UniProt P78363) -0.014
AAK1, A0A096LP25 0.004
ABHD11 (UniProt Q8NFV4) -0.049
AAGAB (UniProt Q6PD74) 0.082
ACBD6 (UniProt Q9BR61) -0.059
ABCF2 isoform 2 (UniProt Q9UG63) -0.029
ABHD16A (UniProt O95870) -0.047
ACCS (UniProt Q96QU6) -0.489
ACACB (UniProt O00763) 0.097

The targets below were run with C1=CC(=CC=C1C2=NC3=C(N2)C=C(C=C3)C(=O)N)OC4=CC=C(C=C4)Cl in the same assay as above.
How it was run: as §1

log2 fold change, inactive:
ACADVL isoform 3 (UniProt P49748) 0.026
ABCC4 (UniProt O15439) 0.028
ABCE1 (UniProt H0Y990) -0.1
ABCE1 (UniProt P61221) 0.027
ABHD5 (UniProt Q8WTS1) -0.035
ACADS (UniProt P16219) -0.013
ACLY (UniProt P53396) -0.018
ABCB6 (UniProt Q9NP58) -0.011
AATF (UniProt Q9NY61) -0.047
ACOT13 (UniProt Q9NPJ3) 0.037
ABI1 isoform 9 (UniProt Q8IZP0) 0.025
ACACA isoform 4 (UniProt Q13085) -0.029
ACBD3 (UniProt Q9H3P7) 0.031
ABITRAM (UniProt Q9NX38) -0.008
ABCB8 (UniProt Q9NUT2) -0.025
ABCC5 (UniProt O15440) 0.057
AARSD1 isoform 3 (UniProt Q9BTE6) -0.049
AASDHPPT (UniProt Q9NRN7) -0.018
ABCA3 (UniProt Q99758) -0.033
ABCC1 (UniProt P33527) -0.027
ABCB7 isoform 2 (UniProt O75027) 0.074
ABCF3 (UniProt Q9NUQ8) -0.049
ACADM isoform 2 (UniProt P11310) -0.034
ABCA4 (UniProt P78363) 0.143
AAK1, A0A096LP25 -0.001
ABHD11 (UniProt Q8NFV4) 0.001
AAGAB (UniProt Q6PD74) -0.009
ACBD6 (UniProt Q9BR61) 0.029
ABCF2 isoform 2 (UniProt Q9UG63) -0.049
ABHD16A (UniProt O95870) 0.03
ACCS (UniProt Q96QU6) 0.093
ACACB (UniProt O00763) -0.025
